Source: the supplement of paper PMC12823440, “Inhibitors supercharge kinase turnover through native proteolytic circuits” (Nature, 2025)
Counter-ions that a name gives are not always drawn. Some of the results follow. Hit calls seldom repeat between salt and free forms of one compound.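 In K562 cells expressing nanoluciferase-fused kinases, luminescence was recorded at 4 h intervals between 2 and 18 h, normalized as percent of control with DMSO at 100% and a positive control at 0%. A significant (2 sigma) signal drop marks a time point as decreased. The authors' rule for a hit is not shown and takes in more than the number of time points.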

By UniProt entry, the sequences of proteins in these tests, tags left out. Where a name states a change or a piece, a line headed by the entry shows the natural chain unless it says otherwise.
UniProt P48729: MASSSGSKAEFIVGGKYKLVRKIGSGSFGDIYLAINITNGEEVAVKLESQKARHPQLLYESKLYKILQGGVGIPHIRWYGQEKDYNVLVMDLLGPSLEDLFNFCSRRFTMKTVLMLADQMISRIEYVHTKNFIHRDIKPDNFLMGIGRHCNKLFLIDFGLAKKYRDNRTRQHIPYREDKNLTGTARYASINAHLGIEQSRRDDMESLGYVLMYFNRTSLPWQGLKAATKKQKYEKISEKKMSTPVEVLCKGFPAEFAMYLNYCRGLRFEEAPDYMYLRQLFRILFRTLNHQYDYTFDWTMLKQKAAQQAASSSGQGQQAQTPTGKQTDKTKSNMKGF
UniProt P48730: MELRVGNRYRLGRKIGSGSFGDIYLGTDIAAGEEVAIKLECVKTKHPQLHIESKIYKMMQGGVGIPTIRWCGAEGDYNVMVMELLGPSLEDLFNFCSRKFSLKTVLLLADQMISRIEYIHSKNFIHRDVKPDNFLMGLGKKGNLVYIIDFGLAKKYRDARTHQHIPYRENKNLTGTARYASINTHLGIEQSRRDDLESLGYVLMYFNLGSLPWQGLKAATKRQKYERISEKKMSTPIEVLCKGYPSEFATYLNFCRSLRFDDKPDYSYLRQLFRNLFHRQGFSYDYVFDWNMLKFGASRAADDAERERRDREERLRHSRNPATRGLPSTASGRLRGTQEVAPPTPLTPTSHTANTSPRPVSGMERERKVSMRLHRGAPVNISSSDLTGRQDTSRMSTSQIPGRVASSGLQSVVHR
UniProt Q08345: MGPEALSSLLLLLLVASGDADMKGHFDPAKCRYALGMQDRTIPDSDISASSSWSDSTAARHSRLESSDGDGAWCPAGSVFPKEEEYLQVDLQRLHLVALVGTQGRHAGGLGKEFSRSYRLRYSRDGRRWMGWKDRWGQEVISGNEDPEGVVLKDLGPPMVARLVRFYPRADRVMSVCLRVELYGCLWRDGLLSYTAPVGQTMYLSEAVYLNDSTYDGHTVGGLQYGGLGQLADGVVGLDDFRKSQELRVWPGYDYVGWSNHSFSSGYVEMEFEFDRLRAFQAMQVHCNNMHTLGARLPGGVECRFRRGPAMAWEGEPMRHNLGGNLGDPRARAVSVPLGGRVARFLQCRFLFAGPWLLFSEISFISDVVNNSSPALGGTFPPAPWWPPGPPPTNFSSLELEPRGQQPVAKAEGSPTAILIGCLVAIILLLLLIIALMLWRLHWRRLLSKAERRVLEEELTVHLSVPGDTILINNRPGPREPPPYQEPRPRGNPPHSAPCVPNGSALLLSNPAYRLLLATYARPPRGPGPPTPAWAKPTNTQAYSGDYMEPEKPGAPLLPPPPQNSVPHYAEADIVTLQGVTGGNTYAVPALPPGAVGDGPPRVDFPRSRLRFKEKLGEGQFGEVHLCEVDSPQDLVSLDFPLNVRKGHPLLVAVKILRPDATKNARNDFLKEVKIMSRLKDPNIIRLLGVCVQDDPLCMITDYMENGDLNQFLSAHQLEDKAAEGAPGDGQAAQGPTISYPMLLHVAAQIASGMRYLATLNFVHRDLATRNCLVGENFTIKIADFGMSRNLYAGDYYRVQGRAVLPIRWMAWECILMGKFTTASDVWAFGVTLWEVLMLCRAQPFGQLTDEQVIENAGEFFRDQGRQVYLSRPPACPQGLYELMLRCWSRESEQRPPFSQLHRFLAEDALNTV
UniProt Q9Y463, whole entry, looked up: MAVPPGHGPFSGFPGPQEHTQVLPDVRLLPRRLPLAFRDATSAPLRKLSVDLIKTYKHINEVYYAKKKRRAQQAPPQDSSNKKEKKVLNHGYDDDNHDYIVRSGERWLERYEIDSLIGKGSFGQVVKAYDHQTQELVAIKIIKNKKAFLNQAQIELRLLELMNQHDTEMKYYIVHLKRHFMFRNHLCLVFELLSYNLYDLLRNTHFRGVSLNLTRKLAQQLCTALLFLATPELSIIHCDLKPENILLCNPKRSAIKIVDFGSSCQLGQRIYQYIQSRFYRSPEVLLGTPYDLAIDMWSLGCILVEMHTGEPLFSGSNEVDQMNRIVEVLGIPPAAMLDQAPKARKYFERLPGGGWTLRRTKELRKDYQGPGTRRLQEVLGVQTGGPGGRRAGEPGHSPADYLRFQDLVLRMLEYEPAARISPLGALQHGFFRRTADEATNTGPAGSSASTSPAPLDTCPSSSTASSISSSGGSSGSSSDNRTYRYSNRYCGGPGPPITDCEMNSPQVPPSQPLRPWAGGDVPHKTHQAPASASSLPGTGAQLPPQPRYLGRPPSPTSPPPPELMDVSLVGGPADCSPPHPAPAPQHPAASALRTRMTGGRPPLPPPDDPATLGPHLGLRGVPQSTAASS
UniProt Q92630: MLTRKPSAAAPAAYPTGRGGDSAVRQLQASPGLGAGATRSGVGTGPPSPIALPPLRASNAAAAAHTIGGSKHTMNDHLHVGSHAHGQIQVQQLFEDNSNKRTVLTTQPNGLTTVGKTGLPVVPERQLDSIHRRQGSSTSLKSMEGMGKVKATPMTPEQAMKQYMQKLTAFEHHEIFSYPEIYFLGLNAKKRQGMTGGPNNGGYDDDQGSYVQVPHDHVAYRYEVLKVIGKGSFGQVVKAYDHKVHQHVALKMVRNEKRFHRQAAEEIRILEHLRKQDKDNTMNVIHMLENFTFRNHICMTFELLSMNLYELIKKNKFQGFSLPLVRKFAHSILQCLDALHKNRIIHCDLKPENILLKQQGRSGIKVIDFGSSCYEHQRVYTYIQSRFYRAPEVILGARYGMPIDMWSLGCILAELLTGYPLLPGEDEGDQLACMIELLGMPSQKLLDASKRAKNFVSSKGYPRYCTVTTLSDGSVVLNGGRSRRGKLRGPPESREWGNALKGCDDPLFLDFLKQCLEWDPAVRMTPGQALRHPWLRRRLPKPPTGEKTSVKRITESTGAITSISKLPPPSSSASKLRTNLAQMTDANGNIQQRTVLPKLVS
UniProt P29317, whole entry: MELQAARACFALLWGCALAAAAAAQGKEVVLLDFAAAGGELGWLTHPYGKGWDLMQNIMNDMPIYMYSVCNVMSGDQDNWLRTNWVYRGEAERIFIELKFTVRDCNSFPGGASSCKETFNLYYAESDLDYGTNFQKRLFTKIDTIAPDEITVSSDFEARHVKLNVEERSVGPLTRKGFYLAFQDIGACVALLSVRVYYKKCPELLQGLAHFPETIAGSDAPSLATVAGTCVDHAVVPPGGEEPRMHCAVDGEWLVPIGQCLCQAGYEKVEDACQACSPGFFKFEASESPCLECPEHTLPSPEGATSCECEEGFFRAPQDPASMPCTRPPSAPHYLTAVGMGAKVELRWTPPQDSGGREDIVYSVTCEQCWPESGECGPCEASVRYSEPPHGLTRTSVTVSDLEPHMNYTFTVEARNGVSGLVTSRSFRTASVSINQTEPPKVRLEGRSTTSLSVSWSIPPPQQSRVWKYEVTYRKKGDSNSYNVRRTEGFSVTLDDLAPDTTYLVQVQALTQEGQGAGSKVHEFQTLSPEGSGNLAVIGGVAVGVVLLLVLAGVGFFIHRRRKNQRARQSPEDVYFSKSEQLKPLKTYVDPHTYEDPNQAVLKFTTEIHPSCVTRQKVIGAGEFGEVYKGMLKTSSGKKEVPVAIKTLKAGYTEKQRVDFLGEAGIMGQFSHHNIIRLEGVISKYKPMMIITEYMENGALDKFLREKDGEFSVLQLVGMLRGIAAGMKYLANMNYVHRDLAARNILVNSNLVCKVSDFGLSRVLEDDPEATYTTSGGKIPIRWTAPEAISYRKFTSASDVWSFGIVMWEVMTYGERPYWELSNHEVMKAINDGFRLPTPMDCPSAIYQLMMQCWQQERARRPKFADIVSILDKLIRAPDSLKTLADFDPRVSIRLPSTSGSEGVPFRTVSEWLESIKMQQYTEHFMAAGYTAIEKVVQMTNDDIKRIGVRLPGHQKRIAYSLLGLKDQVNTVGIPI
UniProt O75460: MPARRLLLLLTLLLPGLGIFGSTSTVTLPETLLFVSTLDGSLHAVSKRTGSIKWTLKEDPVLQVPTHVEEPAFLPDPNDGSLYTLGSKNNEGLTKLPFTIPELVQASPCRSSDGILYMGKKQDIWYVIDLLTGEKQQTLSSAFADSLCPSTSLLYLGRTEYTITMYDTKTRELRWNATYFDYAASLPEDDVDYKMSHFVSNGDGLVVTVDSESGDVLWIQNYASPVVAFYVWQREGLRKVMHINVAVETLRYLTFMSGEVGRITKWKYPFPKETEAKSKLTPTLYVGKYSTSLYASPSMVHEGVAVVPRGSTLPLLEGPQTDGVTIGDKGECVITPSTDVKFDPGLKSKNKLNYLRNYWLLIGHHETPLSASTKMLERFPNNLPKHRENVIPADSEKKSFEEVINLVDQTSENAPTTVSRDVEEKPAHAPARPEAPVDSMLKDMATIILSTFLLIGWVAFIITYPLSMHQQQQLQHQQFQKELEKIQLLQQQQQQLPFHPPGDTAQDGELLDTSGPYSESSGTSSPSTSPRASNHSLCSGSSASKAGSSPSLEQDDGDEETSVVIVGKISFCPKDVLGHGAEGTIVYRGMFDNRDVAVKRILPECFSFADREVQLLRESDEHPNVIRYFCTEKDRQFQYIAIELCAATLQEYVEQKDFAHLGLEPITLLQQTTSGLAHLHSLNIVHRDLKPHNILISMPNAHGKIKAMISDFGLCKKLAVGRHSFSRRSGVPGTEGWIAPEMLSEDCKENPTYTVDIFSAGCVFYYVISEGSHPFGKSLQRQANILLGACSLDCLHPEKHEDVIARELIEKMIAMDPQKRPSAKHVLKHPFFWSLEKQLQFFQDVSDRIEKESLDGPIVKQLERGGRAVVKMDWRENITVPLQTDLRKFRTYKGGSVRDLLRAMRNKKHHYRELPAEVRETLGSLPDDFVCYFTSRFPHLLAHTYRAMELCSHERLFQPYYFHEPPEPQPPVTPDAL
UniProt P11362, whole entry, looked up: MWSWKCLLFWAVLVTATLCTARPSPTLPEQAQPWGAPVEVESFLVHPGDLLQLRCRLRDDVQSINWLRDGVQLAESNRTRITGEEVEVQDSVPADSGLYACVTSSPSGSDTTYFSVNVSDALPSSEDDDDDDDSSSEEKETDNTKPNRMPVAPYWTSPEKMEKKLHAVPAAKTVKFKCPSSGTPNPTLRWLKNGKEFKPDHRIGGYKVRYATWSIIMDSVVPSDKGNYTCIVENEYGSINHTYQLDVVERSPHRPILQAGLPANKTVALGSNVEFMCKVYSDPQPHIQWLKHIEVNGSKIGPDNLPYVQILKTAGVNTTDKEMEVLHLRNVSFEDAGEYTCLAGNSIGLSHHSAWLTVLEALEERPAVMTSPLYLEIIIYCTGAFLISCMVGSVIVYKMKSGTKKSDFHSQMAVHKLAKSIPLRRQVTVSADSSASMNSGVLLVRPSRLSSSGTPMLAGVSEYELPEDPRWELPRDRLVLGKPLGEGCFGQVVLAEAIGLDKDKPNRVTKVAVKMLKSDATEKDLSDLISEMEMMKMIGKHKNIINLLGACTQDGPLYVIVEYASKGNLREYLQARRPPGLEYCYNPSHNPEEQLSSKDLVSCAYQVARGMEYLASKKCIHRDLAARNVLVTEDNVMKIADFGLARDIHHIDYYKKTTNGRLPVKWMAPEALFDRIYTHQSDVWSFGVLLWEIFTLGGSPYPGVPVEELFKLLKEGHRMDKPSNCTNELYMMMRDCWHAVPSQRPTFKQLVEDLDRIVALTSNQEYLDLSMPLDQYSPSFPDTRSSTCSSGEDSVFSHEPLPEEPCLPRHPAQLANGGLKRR
UniProt P22607, whole entry, looked up: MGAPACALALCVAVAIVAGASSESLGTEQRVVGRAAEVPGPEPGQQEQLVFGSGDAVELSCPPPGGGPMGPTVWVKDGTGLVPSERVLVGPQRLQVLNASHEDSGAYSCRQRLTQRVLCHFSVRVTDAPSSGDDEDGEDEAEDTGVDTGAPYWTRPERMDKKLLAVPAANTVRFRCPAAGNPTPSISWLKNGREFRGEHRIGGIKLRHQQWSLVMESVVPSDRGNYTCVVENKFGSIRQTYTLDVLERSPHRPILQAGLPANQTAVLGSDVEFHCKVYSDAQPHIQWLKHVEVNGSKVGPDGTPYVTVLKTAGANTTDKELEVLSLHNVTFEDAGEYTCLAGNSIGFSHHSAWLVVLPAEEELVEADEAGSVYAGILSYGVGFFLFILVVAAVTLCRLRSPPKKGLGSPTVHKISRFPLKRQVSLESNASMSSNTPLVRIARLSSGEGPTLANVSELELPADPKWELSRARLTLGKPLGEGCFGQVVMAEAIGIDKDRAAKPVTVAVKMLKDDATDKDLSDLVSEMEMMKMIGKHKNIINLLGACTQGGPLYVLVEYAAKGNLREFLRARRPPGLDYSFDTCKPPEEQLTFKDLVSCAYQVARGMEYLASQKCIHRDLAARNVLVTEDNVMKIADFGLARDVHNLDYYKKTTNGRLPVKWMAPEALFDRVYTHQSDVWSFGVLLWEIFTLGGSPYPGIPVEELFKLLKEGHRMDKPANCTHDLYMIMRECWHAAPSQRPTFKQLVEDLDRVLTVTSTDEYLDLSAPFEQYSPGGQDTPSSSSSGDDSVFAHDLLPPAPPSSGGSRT

Columns and labels:
Assay in all cases: number of time points (of 5) at which kinase-Nluc abundance scored as decreased, DMSO-normalised (count); higher = more persistent destabilization
Conditions in all cases: K562; 2-18 h
CSNK1A1 = CSNK1A1 (UniProt P48729)
CSNK1D = CSNK1D (UniProt P48730)
DDR1 = DDR1 (UniProt Q08345)
DYRK1B = DYRK1B (UniProt Q9Y463)
DYRK2 = DYRK2 (UniProt Q92630)
EGFR = EGFR (UniProt P00533)
EGFR_G719S = EGFR_G719S (UniProt P00533)
EGFR_G719S_T790M = EGFR_G719S_T790M (UniProt P00533)
EGFR_L718V = EGFR_L718V (UniProt P00533)
EGFR_L858R = EGFR_L858R (UniProt P00533)
EGFR_L861Q = EGFR_L861Q (UniProt P00533)
EGFR_T790M = EGFR_T790M (UniProt P00533)
EPHA2 = EPHA2 (UniProt P29317)
ERBB3 = ERBB3 (UniProt P21860)
[1] = molecular target: ERBB4_R711C (clone: ERBB4_mut) (UniProt Q15303)
ERN1 = ERN1 (UniProt O75460)
FGFR1 = FGFR1 (UniProt P11362)
FGFR2 = FGFR2 (UniProt P21802)
FGFR3 = FGFR3 (UniProt P22607)
FGR = FGR (UniProt P09769)

Measured: number of time points

O=C(Nc1cccnc1)c1cc(-c2ccnc(F)c2)ccc1OCc1ccccc1 (10 µM)
0: CSNK1A1 | CSNK1D | DDR1 | DYRK1B | DYRK2 | EGFR | EGFR_G719S | EGFR_G719S_T790M | EGFR_L718V | EGFR_L858R | EGFR_L861Q | EGFR_T790M | EPHA2 | ERBB3 | [1] | ERN1 | FGFR1 | FGFR2 | FGFR3 | FGR

COc1cc2nccc(Oc3ccc(NC(=O)c4cn(C(C)C)c(=O)n(-c5ccc(F)cc5)c4=O)cc3F)c2cc1OC (0.5 µM)
2: DDR1 | DYRK2 | EPHA2 | FGFR1 | FGFR2
0: CSNK1D | DYRK1B | EGFR_G719S_T790M | EGFR_L718V | EGFR_L858R | EGFR_L861Q | EGFR_T790M | ERBB3 | [1] | ERN1 | FGFR3 | FGR
1: CSNK1A1 | EGFR | EGFR_G719S

Cc1cc(C)cc(NC(N)=Nc2ccccc2C(F)(F)F)c1 (10 µM)
0: CSNK1A1 | CSNK1D | DDR1 | DYRK1B | DYRK2 | EGFR | EGFR_G719S | EGFR_G719S_T790M | EGFR_L718V | EGFR_L858R | EGFR_L861Q | EGFR_T790M | EPHA2 | ERBB3 | [1] | ERN1 | FGFR1 | FGFR2 | FGFR3 | FGR

C#Cc1cccc(Nc2ncnc3cc(OC)c(NC(=O)N4C[C@H]5CCN(C)[C@H]5C4)cc23)c1 [Theliatinib] (10 µM)
0: CSNK1A1 | CSNK1D | DDR1 | DYRK1B | DYRK2 | EGFR | EGFR_G719S | EGFR_G719S_T790M | EGFR_L718V | EGFR_L858R | EGFR_L861Q | EGFR_T790M | EPHA2 | ERBB3 | [1] | ERN1 | FGFR1 | FGFR2 | FGFR3 | FGR

CC(C)Oc1ccc(F)c(-c2cnc(N)c(C(=O)Nc3cnccc3N3CCC[C@@H](C(=O)O)C3)n2)c1 (2 µM)
4: [1]
1: DDR1 | EGFR_L858R
0: CSNK1A1 | CSNK1D | DYRK1B | EGFR | EGFR_G719S | EGFR_G719S_T790M | EGFR_L718V | EGFR_T790M | EPHA2 | ERBB3 | ERN1 | FGFR1 | FGFR2 | FGFR3 | FGR
2: EGFR_L861Q
3: DYRK2

Cc1c(C(=O)Nc2ccc(Oc3ccnc4[nH]cc(-c5ccccc5)c34)c(F)c2)c(=O)n(-c2ccc(F)cc2)n1C (10 µM)
1: FGFR1
2: FGFR2
0: CSNK1A1 | CSNK1D | DDR1 | DYRK1B | EGFR | EGFR_G719S | EGFR_G719S_T790M | EGFR_L718V | EGFR_L858R | EGFR_L861Q | EGFR_T790M | EPHA2 | ERBB3 | [1] | ERN1 | FGFR3 | FGR
3: DYRK2

C=CC(=O)Nc1cc(Nc2nccc(-c3cn(C)c4ccccc34)n2)c(OC)cc1N(C)CCNC [AZ7550 Mesylate] (2.5 µM)
2: ERBB3
0: CSNK1A1 | CSNK1D | DYRK1B | DYRK2 | EGFR | EGFR_G719S | EGFR_G719S_T790M | EGFR_L718V | EGFR_L858R | EGFR_L861Q | EGFR_T790M | EPHA2 | [1] | ERN1 | FGFR1 | FGFR2 | FGFR3 | FGR
1: DDR1

COc1cc(-c2oc3cc(O)cc(O)c3c(=O)c2O)ccc1O [Isorhamnetin] (10 µM)
0: CSNK1A1 | CSNK1D | DDR1 | DYRK1B | DYRK2 | EGFR | EGFR_G719S | EGFR_G719S_T790M | EGFR_L718V | EGFR_L858R | EGFR_L861Q | EGFR_T790M | EPHA2 | ERBB3 | [1] | ERN1 | FGFR1 | FGFR2 | FGFR3 | FGR

c1nn(C2CCOCC2)cc1Nc1ncc2nnn(-c3ccc4cn[nH]c4c3)c2n1 (10 µM)
0: CSNK1A1 | CSNK1D | DDR1 | DYRK1B | DYRK2 | EGFR | EGFR_G719S | EGFR_G719S_T790M | EGFR_L718V | EGFR_L858R | EGFR_L861Q | EGFR_T790M | EPHA2 | ERBB3 | [1] | ERN1 | FGFR1 | FGFR2 | FGFR3 | FGR

Cc1cc(C(=O)NC(C)(C)C)cc(C#Cc2ccc3c4c(oc3c2)C(C)(C)c2cc(NS(C)(=O)=O)ccc2C4=O)n1 (10 µM)
0: CSNK1A1 | CSNK1D | DDR1 | DYRK1B | DYRK2 | EGFR | EGFR_G719S | EGFR_G719S_T790M | EGFR_L718V | EGFR_L858R | EGFR_L861Q | EGFR_T790M | EPHA2 | ERBB3 | [1] | ERN1 | FGFR1 | FGFR2 | FGFR3 | FGR

CN1CCC(CNc2ccc3ncc(-c4cccc(OC(F)(F)F)c4)n3n2)CC1 (2.5 µM)
0: CSNK1A1 | CSNK1D | DDR1 | DYRK1B | DYRK2 | EGFR | EGFR_G719S | EGFR_G719S_T790M | EGFR_L718V | EGFR_L858R | EGFR_L861Q | EGFR_T790M | EPHA2 | ERBB3 | [1] | ERN1 | FGFR1 | FGFR2 | FGFR3 | FGR

Cc1cc(CSc2ccccc2C(=O)NCCNc2ccc(C(F)(F)F)cc2[N+](=O)[O-])on1 (10 µM)
0: CSNK1A1 | CSNK1D | DDR1 | DYRK1B | DYRK2 | EGFR | EGFR_G719S | EGFR_G719S_T790M | EGFR_L718V | EGFR_L858R | EGFR_L861Q | EGFR_T790M | EPHA2 | ERBB3 | [1] | ERN1 | FGFR1 | FGFR2 | FGFR3 | FGR

NCCOc1ccc(Cl)cc1C(=O)Nc1ccc([N+](=O)[O-])cc1Cl [HJC0152 hydrochloride] (2 µM)
0: CSNK1A1 | CSNK1D | DDR1 | DYRK1B | DYRK2 | EGFR | EGFR_G719S | EGFR_G719S_T790M | EGFR_L718V | EGFR_L858R | EGFR_L861Q | EGFR_T790M | EPHA2 | ERBB3 | [1] | ERN1 | FGFR1 | FGFR2 | FGFR3 | FGR

Cc1cc(C(=O)Nc2nc3cccc(Cl)c3n2[C@@H]2CCCCN(C(=O)/C=C/CN(C)C)C2)ccn1 [Nazartinib] (10 µM)
0: CSNK1A1 | CSNK1D | DDR1 | DYRK1B | DYRK2 | EGFR | EGFR_G719S | EGFR_G719S_T790M | EGFR_L718V | EGFR_L858R | EGFR_L861Q | EGFR_T790M | EPHA2 | ERBB3 | [1] | ERN1 | FGFR1 | FGFR2 | FGFR3 | FGR

Cc1cccc(COc2cccc(/C=C3\C(=O)NN(c4ccccc4)C3=O)c2)c1 (10 µM)
0: CSNK1A1 | CSNK1D | DDR1 | DYRK1B | DYRK2 | EGFR | EGFR_G719S | EGFR_G719S_T790M | EGFR_L718V | EGFR_L858R | EGFR_L861Q | EGFR_T790M | EPHA2 | ERBB3 | [1] | ERN1 | FGFR1 | FGFR2 | FGFR3 | FGR

NC(=O)c1ccc(N(C(N)=O)c2c(F)cccc2F)nc1-c1ccc(F)cc1F (10 µM)
0: CSNK1A1 | CSNK1D | DDR1 | DYRK1B | DYRK2 | EGFR | EGFR_G719S | EGFR_G719S_T790M | EGFR_L718V | EGFR_L858R | EGFR_L861Q | EGFR_T790M | EPHA2 | ERBB3 | [1] | ERN1 | FGFR1 | FGFR2 | FGFR3 | FGR

CNC(=O)c1ccc2c(C(=Nc3cccc(CN(C)C)c3)c3ccccc3)c(O)[nH]c2c1 [MEK inhibitor] (10 µM)
0: CSNK1A1 | CSNK1D | DDR1 | DYRK1B | DYRK2 | EGFR | EGFR_G719S | EGFR_G719S_T790M | EGFR_L718V | EGFR_L858R | EGFR_L861Q | EGFR_T790M | EPHA2 | ERBB3 | [1] | ERN1 | FGFR1 | FGFR2 | FGFR3 | FGR

Cc1ccc(-n2nc(C(C)(C)C)cc2NC(=O)Nc2ccc(OCCN3CCOCC3)cc2)cc1 (10 µM)
0: CSNK1A1 | CSNK1D | DDR1 | DYRK1B | DYRK2 | EGFR | EGFR_G719S | EGFR_G719S_T790M | EGFR_L718V | EGFR_L858R | EGFR_L861Q | EGFR_T790M | EPHA2 | ERBB3 | [1] | ERN1 | FGFR1 | FGFR2 | FGFR3 | FGR

CO[C@H]1CC[C@H](N2C(=O)CNc3ncc(-c4ccc(C(C)(C)O)nc4)nc32)CC1 (2.5 µM)
0: CSNK1A1 | CSNK1D | DDR1 | DYRK1B | DYRK2 | EGFR | EGFR_G719S | EGFR_G719S_T790M | EGFR_L718V | EGFR_L858R | EGFR_L861Q | EGFR_T790M | EPHA2 | ERBB3 | [1] | ERN1 | FGFR1 | FGFR2 | FGFR3 | FGR

C=CC(=O)Nc1ccc(C(=O)Nc2[nH]nc3c2CN(C(=O)N[C@H](CN(C)C)c2ccccc2)C3(C)C)cc1 (10 µM)
4: DYRK2
2: DDR1 | EGFR | EGFR_G719S | EGFR_G719S_T790M | EGFR_L718V | EGFR_L858R | EGFR_L861Q | FGFR1 | FGFR3
3: CSNK1A1 | ERBB3 | [1] | FGFR2
0: FGR
1: CSNK1D | DYRK1B | EGFR_T790M | EPHA2 | ERN1

2 records picked at random from those above, as already listed:
Cc1ccc(-n2nc(C(C)(C)C)cc2NC(=O)Nc2ccc(OCCN3CCOCC3)cc2)cc1 (10 µM)
0: CSNK1A1 | CSNK1D | DDR1 | DYRK1B | DYRK2 | EGFR | EGFR_G719S | EGFR_G719S_T790M | EGFR_L718V | EGFR_L858R | EGFR_L861Q | EGFR_T790M | EPHA2 | ERBB3 | [1] | ERN1 | FGFR1 | FGFR2 | FGFR3 | FGR

C=CC(=O)Nc1ccc(C(=O)Nc2[nH]nc3c2CN(C(=O)N[C@H](CN(C)C)c2ccccc2)C3(C)C)cc1 (10 µM)
4: DYRK2
2: DDR1 | EGFR | EGFR_G719S | EGFR_G719S_T790M | EGFR_L718V | EGFR_L858R | EGFR_L861Q | FGFR1 | FGFR3
3: CSNK1A1 | ERBB3 | [1] | FGFR2
0: FGR
1: CSNK1D | DYRK1B | EGFR_T790M | EPHA2 | ERN1

Following part.

O=C1NC(=O)/C(=C\c2c[nH]c(=O)c(-c3ccc(N4CCNCC4)nc3)c2)S1 [Protein kinase inhibitors 1 hydrochloride] (10 µM)
0: CSNK1A1 | CSNK1D | DDR1 | DYRK1B | DYRK2 | EGFR | EGFR_G719S | EGFR_G719S_T790M | EGFR_L718V | EGFR_L858R | EGFR_L861Q | EGFR_T790M | EPHA2 | ERBB3 | [1] | ERN1 | FGFR1 | FGFR2 | FGFR3 | FGR

NS(=O)(=O)c1ccc(Nc2nc(-c3cccc(-c4ccccc4)c3)c3[nH]cnc3n2)cc1 (10 µM)
0: CSNK1A1 | CSNK1D | DDR1 | DYRK1B | DYRK2 | EGFR | EGFR_G719S | EGFR_G719S_T790M | EGFR_L718V | EGFR_L858R | EGFR_L861Q | EGFR_T790M | EPHA2 | ERBB3 | [1] | ERN1 | FGFR1 | FGFR2 | FGFR3 | FGR
